Laboratory results: PubChem BioAssay AID602196 (INSERM, 2012)
The deposit covers about 23,000 reagents; below is a part drawn at random. Over the whole deposit, 455 (2%) are marked active. 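Active includes both protection and sensitisation; some change values fall well beyond the stated -50 to +50 range.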 Unmarked entries are inactive. Not stated in the record: the amount of reagent.

Purpose: 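Genes whose knock-down alters cisplatin killing of lung cancer cells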
Cell system: human A549 lung cancer cells
Reagents: siRNA pair against human genes
Time to read-out: 48 h transfection before cisplatin; time from cisplatin to read-out not stated
Challenge: cisplatin at a dose killing half of control-siRNA cells; exact dose and duration not given
Read-out: 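Shift in cisplatin death relative to control siRNA, from -50 (all cells die) to +50 (no cells die); siRNAs harmful on their own scored 0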
Direction: two-siRNA summed score (-2 to +2): higher = both siRNAs protect from cisplatin killing; -2 means both sensitise; mean protection from cisplatin (shift in death) and protection from cisplatin (shift in death), siRNA C and protection from cisplatin (shift in death), siRNA D: higher = protection from cisplatin killing
Active means: 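siRNAs harmful alone (LDH or WST-1) get 0; others get +1 for less and -1 for more cisplatin killing; genes are active when the two siRNAs give the same sign, summing to ±2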
Meaning of the calls: active = both siRNAs shift cisplatin killing the same way; inactive = no consistent shift, or siRNA harmful alone

target gene	two-siRNA summed score (-2 to +2)	mean protection from cisplatin (shift in death) (%)	protection from cisplatin (shift in death), siRNA C (%)	protection from cisplatin (shift in death), siRNA D (%)
TIGIT (T cell immunoreceptor with Ig and ITIM domains)	0	1.8	-8	11.6
RPS15 (ribosomal protein S15)	0	29.4	36.7	22
LOC440909	0	10.5	4.4	16.5
SNX7 (sorting nexin 7)	1	12.2	4.6	19.8
ATG7 (autophagy related 7)	0	7.3	1.6	13.1
SRSF2 (serine and arginine rich splicing factor 2)	0	12.9	15.5	10.4
HSPB1 (heat shock protein family B (small) member 1)	-1	-1.5	-21.3	18.2
SOFU1 (sperm-oocyte fusion factor 1)	1	11.1	-5.2	27.3
KIAA0363	0	19	30.9	7.1
PABPC1 (poly(A) binding protein cytoplasmic 1)	-1	-6	3.5	-15.4
SF3B4 (splicing factor 3b subunit 4)	0	11.2	21.9	0.4
PACRGL (parkin coregulated like)	0	3.3	-0.4	7
LOC402532	0	5.2	7.9	2.5
POU4F3 (POU class 4 homeobox 3)	0	-12	-27.6	3.6
RBM17 (RNA binding motif protein 17)	0	1.5	-3.7	6.7
ICOS (inducible T cell costimulator)	1	6.7	1.9	11.6
LOC387712	1	8	17.2	-1.2
LINC00710 (long independently transcribed non-coding RNA 710)	0	5.3	11.6	-1
DLEU2 (deleted in lymphocytic leukemia 2)	1	13.9	-3.5	31.3
EXOC4 (exocyst complex component 4)	0	24	26.8	21.1
NOC3L (NOC3 like DNA replication regulator)	0	5.5	-10.7	21.7
GPR135 (G protein-coupled receptor 135)	-1	1	-9.7	11.7
COG4 (component of oligomeric golgi complex 4)	0	-1.4	-8.4	5.6
CUEDC1 (CUE domain containing 1)	0	-2	-6.8	2.9
PXMP2 (peroxisomal membrane protein 2)	0	0.3	9.8	-9.2
RAB43P1 (RAB43 pseudogene 1)	0	5.5	0.3	10.6
SLC19A2	-1	-5.3	4.5	-15.2
LOC441078	1	12	5.3	18.7
OR2W1 (olfactory receptor family 2 subfamily W member 1)	0	4.7	1.5	7.8
PSMA3 (proteasome 20S subunit alpha 3)	0	7.3	5.7	8.9
DEFA4 (defensin alpha 4)	0	-5.4	-16.8	6
PHOX2B (paired like homeobox 2B)	1	7.1	-0.7	14.9
OR2T27 (olfactory receptor family 2 subfamily T member 27)	-1	-1.6	-12.6	9.5
CBARP (CACN subunit beta associated regulatory protein)	0	8.1	17.6	-1.4
PRDM14 (PR/SET domain 14)	0	6.8	8.9	4.7
TTC17 (tetratricopeptide repeat domain 17)	0	1.6	-1.6	4.7
ZNF454 (zinc finger protein 454)	0	3.5	4.6	2.5
TRIB3 (tribbles pseudokinase 3)	0	2	15.3	-11.4
LOC390988	0	7.5	9	6
BAIAP2-DT (BAIAP2 divergent transcript)	0	11.6	17.8	5.4
CREB1 (cAMP responsive element binding protein 1)	-1	-9.3	11.8	-30.4
PDC (phosducin)	0	6.8	4.5	9.2
LY75 (lymphocyte antigen 75)	0	-1	5.5	-7.6
ZNF483 (zinc finger protein 483)	0	4.1	5.8	2.3
PTGDS (prostaglandin D2 synthase)	1	9.1	-4.9	23
CAV1 (caveolin 1)	0	8.3	-1.3	17.9
REST (RE1 silencing transcription factor)	1	19.6	22.4	16.7
SNIP1 (Smad nuclear interacting protein 1)	0	4.1	4	4.2
LOC440848	0	7.8	8.8	6.8
CASP8 (caspase 8)	0	-2.5	-11.6	6.5
ACSL6 (acyl-CoA synthetase long chain family member 6)	0	-2.2	-10.2	5.9
ABHD14B (abhydrolase domain containing 14B)	0	-2.7	8.7	-14.2
PRND (prion like protein doppel)	0	8	20.7	-4.6
GID4 (GID complex subunit 4 homolog)	0	0.8	-2.2	3.7
LOC389892	1	-3.5	13.3	-20.3
CCDC26 (CCDC26 long non-coding RNA)	1	7.9	16.3	-0.4
LOC441329	0	-6.9	-8.9	-4.9
ORAI1 (ORAI calcium release-activated calcium modulator 1)	0	-0.4	6.2	-7
C8orf17 (chromosome 8 putative open reading frame 17)	0	3.3	-2.2	8.9
MAGEF1 (MAGE family member F1)	0	11.2	16	6.3
TAF2 (TATA-box binding protein associated factor 2)	0	4.3	12.4	-3.7
LOC388381	0	-4.9	2.3	-12.2
GBGT1	-1	-10.2	-18.6	-1.9
LOC440582	0	1.6	0.9	2.3
HSPB8 (heat shock protein family B (small) member 8)	-1	-13.6	-3.9	-23.2
ZNF532 (zinc finger protein 532)	0	2.4	-2.4	7.2
FHL3 (four and a half LIM domains 3)	1	9.5	7.4	11.5
ARF1 (ARF GTPase 1)	0	0.4	-4	4.7
COL25A1 (collagen type XXV alpha 1 chain)	0	15.8	16.4	15.2
RGS8 (regulator of G protein signaling 8)	0	9.1	8.7	9.4
LOC284611	0	3.2	3.2	3.3
NID1 (nidogen 1)	0	-3.4	-4.9	-1.9
OLFM2 (olfactomedin 2)	1	15	7.5	22.6

Already shown: 9 of the entries above.
target gene	two-siRNA summed score (-2 to +2)	mean protection from cisplatin (shift in death) (%)	protection from cisplatin (shift in death), siRNA C (%)	protection from cisplatin (shift in death), siRNA D (%)
LOC390988	0	7.5	9	6
BAIAP2-DT (BAIAP2 divergent transcript)	0	11.6	17.8	5.4
CREB1 (cAMP responsive element binding protein 1)	-1	-9.3	11.8	-30.4
PDC (phosducin)	0	6.8	4.5	9.2
LY75 (lymphocyte antigen 75)	0	-1	5.5	-7.6
ZNF483 (zinc finger protein 483)	0	4.1	5.8	2.3
PTGDS (prostaglandin D2 synthase)	1	9.1	-4.9	23
CAV1 (caveolin 1)	0	8.3	-1.3	17.9
REST (RE1 silencing transcription factor)	1	19.6	22.4	16.7
